PMC10771418
These are yes or no findings as the source states them, for the method shown. In cells and extracts the contact can be indirect. Some binding calls cover weakened binding; strength is not graded here. Tags and fused reporters may be left off the sequences shown.

Target: STING-HA, Q86WV6
Assay: co-IP; HEK293T transfected with STING-HA and TBK1-MYC with empty vector or VZV gE for 24 h; immunoprecipitation and blots for VZV gE, HA and MYC
Settings: remark: other sources report otherwise

B1: TBK1-MYC, Q9UHD2 1-729 (enzyme)
chain: MQSTSNHLWLLSDILGQGATANVFRGRHKKTGDLFAIKVFNNISFLRPVDVQMREFEVLKKLNHKNIVKLFAIEEETTTRHKVLIMEFCPCGSLYTVLEEPSNAYGLPESEFLIVLRDVVGGMNHLRENGIVHRDIKPGNIMRVIGEDGQSVYKLTDFGAARELEDDEQFVSLYGTEEYLHPDMYERAVLRKDHQKKYGATVDLWSIGVTFYHAATGSLPFRPFEGPRRNKEVMYKIITGKPSGAISGVQKAENGPIDWSGDMPVSCSLSRGLQVLLTPVLANILEADQEKCWGFDQFFAETSDILHRMVIHVFSLQQMTAHKIYIHSYNTATIFHELVYKQTKIISSNQELIYEGRRLVLEPGRLAQHFPKTTEENPIFVVSREPLNTIGLIYEKISLPKVHPRYDLDGDASMAKAITGVVCYACRIASTLLLYQELMRKGIRWLIELIKDDYNETVHKKTEVVITLDFCIRNIEKTVKVYEKLMKINLEAAELGEISDIHTKLLRLSSSQGTIETSLQDIDSRLSPGGSLADAWAHQEGTHPKDRNVEKLQVLLNCMTEIYYQFKKDKAERRLAYNEEQIHKFDKQKLYYHATKAMTHFTDECVKKYEAFLNKSEEWIRKMLHLRKQLLSLTNQCFDIEEEVSKYQEYTNELQETLPQKMFTASSGIKHTMTPIYPSSNTLVEMTLGMKKLKEEMEGVVKELAENNHILERFGSLTMDGGLRNVDCL
- binding: binds
